From patent US20250353827A1, “INDOLINE DERIVATIVES AS SEROTONERGIC AGENTS USEFUL FOR THE TREATMENT OF DISORDERS RELATED THERETO” (MINDSET PHARMA INC., priority 2022, published 2025)
At least one compound was matched to its structure with a doubt left.

System: Male, C57BL/6J mice
Experiment: Mouse head twitch
Assay type: in vivo
Conditions: SC, dose range as in the sentence
Procedure: The effect of different doses of representative compounds of Formula I were evaluated on head-twitch response (HTR) and other behavioural responses as behavior-based models of psychedelic activity.
Male, C57BL/6J mice (body weight range 20-30 g) were dosed with the appropriate dose of test article, and following a 1-minute pre-treatment time, placed in individual observation chambers. Animals were visually assessed for the incidence head twitches continuously over a 1 hr period. Head twitches were defined as a rapid jerk of the head which was not elicited by an external tactile stimulus (Come and Pickering, Psychopharmacologia, 1967, 11(1): 65-78). Each head twitch was individually counted by a trained observer, and the data was expressed as the mean±SEM of 6-10 mice per group. Mice were used in a single experiment only.
The head twitch response of exemplary compound II-1 (1-30 mg/kg SC) was compared to 5-MeO DMT and psilocybin (FIG. 1, Table 6).

SMILES: CN(C)CCc1c[nH]c2cccc(OP(=O)(O)O)c12 [psilocybin]
- head twitch response (in words): dose related increase in the incidence of head twitch response
